Test results published in patent US20230280353.

Protein sequences, listed by entry. Tags and fused reporters are not part of them.
UniProt P03069, whole entry: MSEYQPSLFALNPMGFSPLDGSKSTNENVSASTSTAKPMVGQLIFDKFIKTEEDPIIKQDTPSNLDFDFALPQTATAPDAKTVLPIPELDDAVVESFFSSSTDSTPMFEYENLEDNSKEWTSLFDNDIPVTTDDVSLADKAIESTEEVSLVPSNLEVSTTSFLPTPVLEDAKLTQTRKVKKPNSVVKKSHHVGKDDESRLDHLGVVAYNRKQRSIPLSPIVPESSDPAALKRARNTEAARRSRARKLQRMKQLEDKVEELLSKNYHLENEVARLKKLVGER

Target: GCN4 (UniProt P03069)
Test: binding assay
Conditions: SPIDER proximity covalent capture (SAm-PupE, PafA7KR, ATP), 30 C, Flag western; complex band only with biotinylated DNA; purified recombinant protein; protein details: Flag and 6xHis tags, pET28a, E. coli BL21(DE3); label: 5'-biotin

“CAACCCATGAGTCATAC (double strand) [GCN4 target DNA]”: binds.

Construct, isoform or probe ends are uncertain for at least one entry.
